US20100291584A1, “MICROFLUIDIC IMAGING CYTOMETRY” (The Regents of the University of California, priority 2008, published 2010)
At least one structure is not confirmed: it was looked up by name or label, or the drawing left a doubt.

Assays:
[1] = tested on: pS6 phosphorylation in tumor cells; experiment: MIC measurement of pS6 phosphorylation in surgically removed brain tumors of patients treated with targeted drug; type: in vivo, human; details: patients who received targeted drug; data not shown
[2] = tested on: pAkt in patient BTSC lines; experiment: MIC analysis of chemotherapy response in patient BTSC lines; type: cell-based, human

## CO[C@H]1C[C@@H]2CC[C@@H](C)[C@@](O)(O2)C(=O)C(=O)N2CCCC[C@H]2C(=O)O[C@H]([C@H](C)C[C@@H]2CC[C@@H](O)[C@H](OC)C2)CC(=O)[C@H](C)/C=C(\C)[C@@H](O)[C@@H](OC)C(=O)[C@H](C)C[C@H](C)/C=C/C=C/C=C/1C [rapamycin]
[1]
  pS6 phosphorylation levels in tumor cells: dramatically reduced pS6 phosphorylation levels
[2]
  activated pAkt at the single cell level: chemo-activation
